Results on one compound are retold here after patent US10119079B2, “Composition for removal of sulfur-containing compounds” (KURARAY CO., LTD., priority 2014, dated 2018).

Molecules are shown by their SMILES. Some results are limits rather than exact numbers.

The subject of the data set is activated sludge. Briefly: Biodegradability test (OECD Test Guidelines 301C, JIS K6950). To be noted: high-concentration group (100 ppm).

For `Nc1ccccc1` [aniline], the “biodegradation ratio for 28 days (individual runs, n=2)” value (25° C.) is listed as at least 60%. In addition, under “28 days”, the “degradability decision (60% or more = good degradable)” value is recorded as “good degradability”.
